Results from the supplement of paper PMC12823440, “Inhibitors supercharge kinase turnover through native proteolytic circuits” (Nature, 2025).
Counter-ions that a name gives are not always drawn. This is one part of the list. The calls rarely recur for the same compound in another form.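 In K562 cells expressing nanoluciferase-fused kinases, luminescence was recorded at 4 h intervals between 2 and 18 h, normalized as percent of control with DMSO at 100% and a positive control at 0%. A significant (2 sigma) signal drop marks a time point as decreased. The authors' rule for a hit is not shown and takes in more than the number of time points.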

Sequences of proteins named here, by UniProt entry; tags and fusion partners are left off.
UniProt P28482, whole entry: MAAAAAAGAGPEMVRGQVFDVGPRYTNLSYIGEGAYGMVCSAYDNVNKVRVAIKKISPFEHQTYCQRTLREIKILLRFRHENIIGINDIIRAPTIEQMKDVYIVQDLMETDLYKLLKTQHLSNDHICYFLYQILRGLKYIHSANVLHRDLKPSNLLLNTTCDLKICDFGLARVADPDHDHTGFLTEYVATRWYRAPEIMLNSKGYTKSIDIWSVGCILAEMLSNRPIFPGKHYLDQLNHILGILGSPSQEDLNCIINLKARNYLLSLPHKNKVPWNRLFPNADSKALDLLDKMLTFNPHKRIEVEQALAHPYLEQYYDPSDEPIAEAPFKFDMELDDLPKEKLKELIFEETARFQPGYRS

The compounds below were run against MAPK1 (UniProt P28482) (assay: kinase-Nluc reporter destabilization hit call (1 = scored as downregulated) (binary); higher = compound decreases kinase abundance). Conditions: K562; 2-18 h.

kinase-Nluc reporter destabilization hit call, inactive:
CN(C)c1nc2c(Br)c(Br)c(Br)c(Br)c2n1CC(=O)O (10 µM) 0
COc1cc(N2CCC(N(C)C)CC2)ccc1Nc1ncc(Cl)c(Nc2ccccc2P(C)(C)=O)n1 (2.5 µM) 0
CC(C)C[C@H](NC(=O)[C@H](CCCCN)NC(=O)[C@H](CO)NC(=O)[C@@H](N)CC(C)C)C(N)=O [LSKL, Inhibitor of Thrombospondin (TSP-1) (TFA)] (10 µM) 0
O=C(Nc1ccc(Cl)c(Cl)c1)Nc1ccc2nnsc2c1 (10 µM) 0
CC(C)Oc1ccc(-c2cnc3c(-c4ccnc5ccccc45)cnn3c2)cc1 (10 µM) 0
O=C(CCCCCn1cc(Nc2ncc(Cl)c(Nc3ccc(Cl)cc3)n2)cn1)NO (2.5 µM) 0
CC(=O)NCCc1c[nH]c2ccc(O)cc12 [N-Acetyl-5-hydroxytryptamine] (10 µM) 0
O=C(c1ccc(Nc2nccc(-c3cc4ccccc4s3)n2)cc1)N1CCC(N2CCCC2)CC1 (2.5 µM) 0
C=CC(=O)N1CCC[C@@H](n2nc(C(=O)Nc3ccc(CC(=O)N(C)C)c(C)c3C)c3c(N)ncnc32)C1 (10 µM) 0
CC(CCc1ccccn1)(CCc1ccccn1)C(=O)c1ccccc1 (10 µM) 0
CC[C@@H]1[C@H](F)C(=O)N[C@@H]1COc1nccc2cc(C(N)=O)c(OC)cc12 (10 µM) 0
Nc1cc(C(F)F)c(-c2nc(N3C4CCC3COC4)nc(N3C4CCC3COC4)n2)cn1 (2.5 µM) 0
Oc1ccccc1C(=S)N1CCCC1 (10 µM) 0
COc1ccc(-n2c(C)c([N+](=O)[O-])c3ccc(O)cc32)cc1 (10 µM) 0
CN(C)Cc1cccc(N=C(c2ccccc2)c2c(O)[nH]c3cc(C(N)=O)ccc23)c1 (10 µM) 0
CCCCNC(=N)NC(=N)N [Buformin (hydrochloride)] (2.5 µM) 0
O=c1ccoc2cc(O)ccc12 [7-Hydroxy-4H-chromen-4-one] (10 µM) 0
C=CC(=O)Nc1cccc(-n2c(=O)cc(C)c3cnc(Nc4ccc(OCCN(C)C)cc4OC)nc32)c1 (10 µM) 0
O=c1[nH]ccc2cc(OC3CCNCC3)ccc12 (10 µM) 0
CCCCOc1ccc(CC/C=C2\SC(=O)N(CCN)C2=O)cc1 [K145 (hydrochloride)] (2.5 µM) 0
CC(C)(O)[C@@H]1CC[C@](C)([C@H]2[C@@H](O)C[C@@]3(C)[C@@H]4C[C@H](O[C@@H]5O[C@H](CO)[C@@H](O)[C@H](O)[C@H]5O)[C@H]5C(C)(C)[C@@H](O[C@@H]6OC[C@@H](O)[C@H](O)[C@H]6O[C@@H]6O[C@H](CO)[C@@H](O)[C@H](O)[C@H]6O)CC[C@@]56C[C@@]46CC[C@]23C)O1 [Astragaloside VI] (10 µM) 0
O=C1NC(=O)C(c2cn(-c3ccccc3)nc2-c2ccc(F)cc2)N1 (centres undefined) (10 µM) 0
C[C@@H]1COCCN1c1cc(C2([S@](C)(=N)=O)CC2)nc(-c2cc[nH]c3nccc2-3)n1 [Ceralasertib] (2.5 µM) 0
CN(C)Cc1cccc(N=C(c2ccccc2)c2c(O)[nH]c3cc(C(=O)N(C)C)ccc23)c1 (10 µM) 0
CN1CCN(CCCNc2ncc(Cl)c(-c3cc4c(C(=O)NC5CC5)cccc4s3)n2)CC1 (10 µM) 0
CC[C@H](Nc1ncnc2[nH]cnc12)c1oc2ccccc2c(=O)c1-c1cccc(F)c1 [Tenalisib] (10 µM) 0
O=C1NC(=O)C(c2cnc3ccccn23)=C1c1cn2c3c(cc(F)cc13)CN(C(=O)N1CCCCC1)CC2 (2.5 µM) 0
COc1c(C)c(C(=O)c2ccc(N)c(C(=O)O)c2)n2ccccc12 (10 µM) 0
N#Cc1ccc(-c2c(-c3ncn[nH]3)sc(N3CCOCC3)c2C#N)c(F)c1 (10 µM) 0
N#C/C(=C(/N)Sc1ccc(N)cc1)c1ccccc1C(F)(F)F (10 µM) 0
O=C(Nc1ccc(Cl)cc1)C1CCCN(C(=O)c2cccc(-c3ccco3)c2)C1 (centres undefined) (2.5 µM) 0
CC(=O)Nc1nc(C)c(-c2nc(N3CCCC(O)C3)no2)s1 (centres undefined) (10 µM) 0
CCc1ccc(C(=O)COc2ccc(CC3SC(=O)NC3=O)cc2)nc1 (centres undefined) (10 µM) 0
NC(=O)c1ccc(-c2cnn3ccc(NCc4cccnc4)nc23)cc1 (2.5 µM) 0
Nc1[nH]c(=O)nc2c1ncn2[C@@H]1O[C@H](CO)[C@@H](O)[C@H]1O [Crotonoside] (10 µM) 0
CC1(COc2ccc3c(c2)ncn3-c2ccc3cccc(N4CCC(N)CC4)c3n2)COC1 [Crenolanib] (2.5 µM) 0
CSc1ccc(CN2CCCC(Nc3ccc4[nH]ncc4c3)C2)cc1 (centres undefined) [Rho-Kinase-IN-1] (10 µM) 0
N=C(N)NC(=N)NCCc1ccccc1 [Phenformin (hydrochloride)] (10 µM) 0
C=C(F)C(=O)N1CCN(c2nc(OC[C@@H]3CCCN3C)nc3c2CCN(c2cccc4cccc(Cl)c24)C3)C[C@@H]1CC#N (2.5 µM) 0

An excerpt from above in order of length of the SMILES, descending.
kinase-Nluc reporter destabilization hit call, inactive:
CC(C)(O)[C@@H]1CC[C@](C)([C@H]2[C@@H](O)C[C@@]3(C)[C@@H]4C[C@H](O[C@@H]5O[C@H](CO)[C@@H](O)[C@H](O)[C@H]5O)[C@H]5C(C)(C)[C@@H](O[C@@H]6OC[C@@H](O)[C@H](O)[C@H]6O[C@@H]6O[C@H](CO)[C@@H](O)[C@H](O)[C@H]6O)CC[C@@]56C[C@@]46CC[C@]23C)O1 [Astragaloside VI] (10 µM) 0
C=C(F)C(=O)N1CCN(c2nc(OC[C@@H]3CCCN3C)nc3c2CCN(c2cccc4cccc(Cl)c24)C3)C[C@@H]1CC#N (2.5 µM) 0
CC(C)C[C@H](NC(=O)[C@H](CCCCN)NC(=O)[C@H](CO)NC(=O)[C@@H](N)CC(C)C)C(N)=O [LSKL, Inhibitor of Thrombospondin (TSP-1) (TFA)] (10 µM) 0
C[C@@H]1COCCN1c1cc(C2([S@](C)(=N)=O)CC2)nc(-c2cc[nH]c3nccc2-3)n1 [Ceralasertib] (2.5 µM) 0
O=C(c1ccc(Nc2nccc(-c3cc4ccccc4s3)n2)cc1)N1CCC(N2CCCC2)CC1 (2.5 µM) 0
CC[C@H](Nc1ncnc2[nH]cnc12)c1oc2ccccc2c(=O)c1-c1cccc(F)c1 [Tenalisib] (10 µM) 0
Nc1[nH]c(=O)nc2c1ncn2[C@@H]1O[C@H](CO)[C@@H](O)[C@H]1O [Crotonoside] (10 µM) 0
N#C/C(=C(/N)Sc1ccc(N)cc1)c1ccccc1C(F)(F)F (10 µM) 0
CCCCOc1ccc(CC/C=C2\SC(=O)N(CCN)C2=O)cc1 [K145 (hydrochloride)] (2.5 µM) 0
O=C(Nc1ccc(Cl)c(Cl)c1)Nc1ccc2nnsc2c1 (10 µM) 0
